Laboratory results reported in PubChem BioAssay AID1688 (National Center for Advancing Translational Sciences (NCATS), 2009).
Among all 220,000 compounds or so, about 2,400 (1.1%) were called active. Inconclusive means that the source gave no clear call. Such entries were picked first, then a sample of the others. The call rests on the fitted dose curve; in most records, active means well fitted inhibition curve with a large enough effect; inconclusive means small, poorly fitted or top-dose-only effect, or effect the other way; inactive means no such curve, though single readings can be large or run the other way. Where the call is inconclusive, the potency comes from a doubtful curve fit.

assay: qHTS Multiplex Assay to Identify Dual Action Probes in a Cell Model of Huntington: Aggregate Formation (GFP); details: PC12 HttQ103-GFP aggregates, Acumen cytometry, 40 h; activity change, negative = inhibition: at 46.1 µM (top of the series) unless noted; further: nearly all actives have a fitted effect of over 60% in size
Method in brief: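 Inducible Q103 Huntingtin exon 1–GFP PC12 line, 1500 cells/well in phenol red free DMEM with 5% equine and 5% calf serum. Tebufenozide 100 nM induced expression; compounds titrated; aggregates quantified by cytometry.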
On the % scale 0 is the no-effect control and ±100 the full control effect; potency means the concentration at half of the fitted maximal effect.

| Compound | activity change, negative = inhibition | Potency |
| --- | --- | --- |
| Cc1ccc(NP(=O)(c2ccc(N(C)C)cc2NC(=O)c2cccs2)N2CCOCC2)cc1 (centres undefined) | inactive: 7.3% |  |
| COc1ccc(OCC(=O)N/N=C/C2CC=CCC2)cc1 (centres undefined) | inactive: 2.56% |  |
| O=C(CSc1ncccn1)Nc1ccccc1 | inactive: -0.0513% |  |
| CCCn1c(SCC(=O)NCc2ccccc2)n[nH]c1=O | inactive: 7.07% |  |
| COc1ccc(C(=O)N2CC3(C)CC2CC(C)(C)C3)cc1 (centres undefined) |  | inconclusive: 3.55 µM [activator, partial curve] |
| CCCOc1c(Cl)cc(/C=N/O)cc1OCC |  | inconclusive: 15.8 µM [inhibitor, single point] |
| CCn1nc(C(=O)Nc2ccc(S(=O)(=O)Nc3nccs3)cc2)c2ccccc2c1=O | inactive: -0.716% |  |
| CC(=O)NCc1ccc(S(=O)(=O)N/N=C/c2ccc(Br)cc2)cc1 |  | inconclusive: 35.5 µM [activator, single point] |
| CC(=O)Oc1ccccc1C1=NN(C(=O)/C=C/c2ccccc2)C(c2ccccc2)C1 (centres undefined) |  | inconclusive: 11.2 µM [inhibitor, single point] |
| Cc1cccc(C)c1N1CCN(S(=O)(=O)c2ccc(F)cc2)CC1 |  | inconclusive: 22.4 µM [inhibitor, single point] |
| N#C/C(=C\Nc1ccccc1O)c1nc2ccccc2o1 |  | active: 5.62 µM |
| CCCCCCc1cc2cc(-c3nnc(-c4ccccc4)o3)c(=O)oc2cc1O |  | active: 5.01 µM |
| COc1ccc(Cc2nnc(NC(=O)c3c(-c4ccccc4)noc3C)s2)cc1OC | inactive: 24.1% |  |
| O=C(Cn1nc(-c2ccc(F)cc2)ccc1=O)Nc1ccc(C(=O)NC2CC2)cc1 | inactive: -8.91% |  |
| CN1CCN(CCCNC(=O)c2cn(C3CCCCC3)c(=O)c3c2c2ccccc2n3C)CC1 | inactive: 10.9% |  |
| COc1ccc2cc3c(N)c(C(=O)N4CCCC4)sc3nc2c1 | inactive: -6.04% |  |
| Cn1c(=O)[nH]c(=O)c2c1nc(Br)n2CCSc1nnnn1-c1ccccc1 | inactive: 7.46% |  |
| O=C1C=C(Nc2ccc(Cl)cc2)CC(c2ccc(Cl)cc2)C1 (centres undefined) | inactive: 3.72% |  |
| CC(C)(C)S(=O)(=O)/C(C#N)=N/Nc1ccc(Cl)cc1 |  | active: 11.2 µM |
| O=C(CN1CCC(n2nnc3cc(F)ccc32)CC1)Nc1ccccc1N1CCOCC1 |  | inconclusive: 3.16 µM [inhibitor, partial curve] |
| Nc1nc(CSC(=S)N2CCOCC2)nc(Nc2ccccc2)n1 |  | inconclusive: 3.55 µM [activator, single point] |
| O=C(Nc1cc(C(F)(F)F)ccc1N1CCOCC1)c1ccc(Br)o1 |  | inconclusive: 3.16 µM [inhibitor, single point] |
| CC1=CCC(C(=O)N/N=C/c2cccs2)C(c2ccc(F)cc2)C1 (centres undefined) |  | inconclusive: 35.5 µM [inhibitor, single point] |
| O=C(CSc1ncccc1C(=O)O)NC1CCCCCCC1 | inactive: 12.3% [at 9.22 µM] |  |
| Cc1cc2cc(CNC(=S)NC3CCCCC3)ccc2[nH]1 |  | inconclusive: 35.5 µM [inhibitor, single point] |

| Compound | activity change, negative = inhibition | Potency |
| --- | --- | --- |
| CC1CN(C(=S)SCCN2Cc3ccccc3C2=O)CC(C)O1 (centres undefined) |  | inconclusive: 3.55 µM [inhibitor, single point] |
| CC(=O)Oc1ccccc1N(C(C)=O)S(=O)(=O)c1ccc2ccccc2c1 | inactive: 4.23% [at 9.22 µM] |  |
| Cc1ccc2nc(NC(=O)C3CCCN(S(=O)(=O)c4cccc5nsnc45)C3)sc2c1 (centres undefined) |  | inconclusive: 35.5 µM [inhibitor, single point] |
| COc1ccc(C(=O)NC(=O)COC(=O)C2COc3ccccc3O2)cc1 (centres undefined) |  | inconclusive: 0.562 µM [inhibitor, full curve] |
| Cc1ccc(NC(=O)C2=C(c3ccccc3)S(=O)(=O)CCS2(=O)=O)cc1 |  | active: 5.01 µM |
| CCc1cc2cc(C(=O)N3CCN(Cc4ccccc4)CC3)sc2s1 |  | inconclusive: 35.5 µM [inhibitor, single point] |
| Cc1ccc(C(=O)N2CCC(Cc3ccccc3)CC2)cc1[N+](=O)[O-] |  | inconclusive: 25.1 µM [inhibitor, partial curve, poor fit] |
| N#C/C(=N\Nc1ccc(Cl)cc1)C(=O)c1ccccc1 |  | inconclusive: 1.58 µM [inhibitor, full curve] |
| COC(=O)c1c(C(=O)OC)c2cc(C(=O)c3ccccc3)ccn2c1Cl |  | inconclusive: 7.08 µM [inhibitor, partial curve, poor fit] |
| Cc1cc(C)n(-c2nnc(C)n2/N=C/c2ccccc2OCc2ccccc2Cl)n1 |  | inconclusive: 35.5 µM [activator, partial curve] |
| COc1ccc(NC(=O)CC2Sc3ncnn3C2=O)cc1 (centres undefined) | inactive: 9.47% |  |
| CCOC(=O)O[C@]1(C(=O)COC(=O)CC)CC[C@@H]2[C@@H]3CCC4=CC(=O)C=C[C@@]4(C)[C@H]3[C@H](O)C[C@]21C | inactive: 13.9% [at 20.6 µM] |  |
| O=C(O)CSc1ncnc2scc(-c3ccc(Br)cc3)c12 | inactive: 0.437% [at 9.22 µM] |  |
| Cc1ccc(/C=C/C(=O)NC2CCCCCCC2)o1 |  | inconclusive: 35.5 µM [inhibitor, single point] |
| COC(=O)c1sc(NC(=O)Cc2cccs2)nc1C | inactive: -15.2% |  |
| COc1ccc(C(=O)OCCN2CCOCC2)cc1 | inactive: 0.716% |  |
| COc1ccc(Cl)cc1NC(=O)C1COc2ccccc2O1 (centres undefined) |  | inconclusive: 1 µM [inhibitor, single point] |
| CCCCCn1c(SCCCC)nc2c1c(=O)[nH]c(=O)n2C | inactive: -13.5% |  |
| Cc1cc(N2CCCC2)nc2ccc(NC(=S)NCCCN3CCC(C)CC3)cc12 |  | inconclusive: 22.4 µM [inhibitor, single point] |
| COc1ccccc1/C=C/C=N/n1c(-c2ccco2)n[nH]c1=S | inactive: -11.7% [at 9.22 µM] |  |
| N#Cc1ccccc1NC(=O)Nc1ccc(Cl)cc1 | inactive: 6.07% |  |
| COc1ccc(NC(=O)N/C=C/c2ccco2)cc1 |  | inconclusive: 14.1 µM [activator, partial curve] |
| O=C1C(=O)N(Cc2cccc([N+](=O)[O-])c2)c2ccccc21 |  | inconclusive: 3.16 µM [inhibitor, single point] |
| Cc1ccc(C(=O)OCn2ncc(Cl)c(Cl)c2=O)cc1 |  | inconclusive: 3.16 µM [inhibitor, single point] |

2 entries from above in another layout.
Compound,"activity change, negative = inhibition",Potency
O=C1C=C(Nc2ccc(Cl)cc2)CC(c2ccc(Cl)cc2)C1 (centres undefined),inactive: 3.72%,
CC(C)(C)S(=O)(=O)/C(C#N)=N/Nc1ccc(Cl)cc1,,active: 11.2 µM
